Laboratory results reported in PubChem BioAssay (Tox21).
“And” between values parts separate entries of the source, which are not always exact repeats. Identical values can stand only once. For some assays here: Shown are results outside the selection of hits, which stands elsewhere. Records with an inconclusive call do not appear. Only a part is listed here, and it is no random draw. The source made the active and inactive calls. Unless noted, calls follow the shape of the dose curve; as a rule, active = well fitted curve in the direction sought with a large enough effect in the repeat runs; inconclusive = weak or mixed curves; inactive = no such curve, though single readings can be large; an effect the other way counts as inactive or inconclusive.

Sequences of proteins named here, by UniProt entry; tags and fusion partners are left off. A change or cut given only in a name is not applied to a line headed by its entry.
UniProt Q14994: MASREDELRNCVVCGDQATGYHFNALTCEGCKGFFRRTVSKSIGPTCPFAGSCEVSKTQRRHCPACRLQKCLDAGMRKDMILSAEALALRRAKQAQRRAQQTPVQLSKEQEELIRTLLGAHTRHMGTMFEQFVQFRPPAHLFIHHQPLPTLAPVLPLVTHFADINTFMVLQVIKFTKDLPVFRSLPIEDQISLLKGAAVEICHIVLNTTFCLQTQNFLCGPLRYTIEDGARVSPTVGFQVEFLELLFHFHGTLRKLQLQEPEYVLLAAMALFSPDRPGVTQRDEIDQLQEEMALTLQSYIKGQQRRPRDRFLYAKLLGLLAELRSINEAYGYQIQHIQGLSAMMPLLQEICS

How the values were obtained:
[1] = qHTS assay to identify small molecule antagonists of the retinoic acid receptor (RAR) signaling pathway (AID 1159552; also: nearly all actives have a fitted effect of over 50% in size); details: C3RL4 RARE luciferase reporter, retinol-stimulated, 6 h; at 92.4 µM (top of the series)
Procedure, shortened: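 RARE-luc C3RL4 cells; cpds + 1 uM (final) retinol, 6 hr, 37 C/5% CO2; luciferase reagent, 30 min RT, luminescence readout. Inhibitors of retinol-driven signal scored.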

[2] = qHTS assay to identify small molecule agonists of the retinoic acid receptor (RAR) signaling pathway (AID 1159553); details: C3RL4 RARE luciferase reporter, agonist, 6 h; at 94.8 µM (top of the series)
Procedure, shortened: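 Luminescence from a RARE-driven luciferase reporter in C3RL4 cells served as the read-out, measured after 30 min with detection reagent at room temperature. Compounds in DMSO were applied for 6 hr at 37 C following overnight seeding.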

[3] = qHTS assay to identify small molecule agonists of the constitutive androstane receptor (CAR) signaling pathway - cell viability counter screen (AID 1224836); details: HepG2-CYP2B6-hCAR viability, CellTiter-Fluor, 23 h; at 92.4 µM (top of the series); PK11195 added to every well; also: nearly all actives have a fitted effect of over 45% in size
Procedure, shortened: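 HepG2 cells stably carrying hCAR and a CYP2B6-2.2kb reporter were plated 4 h, then given compounds at 15 concentrations plus PK11195 (final 0.75 uM). After 23 h at 37 C, viability was read by CellTiter-Fluor fluorescence.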

[4] = qHTS assay to identify small molecule antagonists of the constitutive androstane receptor (CAR) signaling pathway - cell viability counter screen (AID 1224837); details: HepG2-CYP2B6-hCAR viability, CellTiter-Fluor, 23 h; at 92.4 µM (top of the series); co-treated with 50 nM CITCO; also: nearly all actives have a fitted effect of over 45% in size
Procedure, shortened: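 HepG2-CYP2B6-hCAR cells, 2500/well, 4 hr pre-incubation; compound titration, 15 conc.; CITCO 50 nM final; 23 hr, 37 C/5% CO2; CellTiter-Fluor, fluorescence intensity.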

[5] = target: Nuclear receptor subfamily 1 group I member 3 (Homo sapiens) (UniProt Q14994); assay: qHTS assay to identify small molecule antagonists of the constitutive androstane receptor (CAR) signaling pathway (AID 1224838); details: HepG2-CYP2B6-hCAR luciferase, CITCO-stimulated, 24 h; at 92.4 µM (top of the series); also: nearly all actives have a fitted effect of over 40% in size
Procedure, shortened: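 HepG2-CYP2B6-hCAR cells; 4 h pre-incubation; cpd (15 conc) + CITCO 50 nM final; 24 h, 37 C/5% CO2; ONE-Glo, luminescence.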

[6] = qHTS assay to identify small molecule agonists of the hypoxia (HIF-1) signaling pathway - cell viability counter screen (AID 1224844; calls by dose curve; also: nearly all actives have a fitted effect of over 50% in size); details: HRE-bla ME-180 viability, CellTiter-Glo luminescence, 17 h; at 76.8 µM (top of the series)
Procedure, shortened: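 ME-180 HRE-bla cells, 2,000/well, 0.5% dialyzed FBS; 5 hr settle, 17 hr compound at 37C/5% CO2; CCF4-AM reporter read first, then CellTiter-Glo luminescence after 30 min RT.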

[7] = qHTS assay to identify small molecule agonists of H2AX - cell viability counter screen (AID 1224847; calls by dose curve; also: top concentration of the series differs between compounds; nearly all actives have a fitted effect of over 30% in size)
Procedure, shortened: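 Wild-type CHO-K1 cells (10% FBS medium) were plated overnight at 37C, exposed to compounds at 15 concentrations for 3 hr at 37C (0.76% DMSO final), and viability was read as CellTiter-Glo luminescence after 30 min at room temperature.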

[8] = qHTS RealTime-Glo MT Cell Viability Assay in HepG2 cells - 24 hour (AID 1224867); details: RealTime-Glo luminescence, at 76.8 µM (top of the series); also: nearly all actives have a fitted effect of over 50% in size
Procedure, shortened: (§1)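 Cell number in HepG2 cultures estimated from NanoLuc luminescence generated by metabolic reduction of a prosubstrate by living cells. The homogeneous, nonlytic format allowed repeated reads at 0, 8, 16, 24, 32 and 40 h of compound exposure.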

[9] = qHTS RealTime-Glo MT Cell Viability Assay in HEK293 cells - 32 hour (AID 1224868); details: RealTime-Glo luminescence, at 76.8 µM (top of the series); also: top concentration of the series differs between compounds; nearly all actives have a fitted effect of over 50% in size
Procedure, shortened: (§2)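 Homogeneous bioluminescent viability format in HEK293 cells (600 cells/well). Following 5 h at 37 C/5% CO2, 23 nL compound was pintooled; the signal was measured repeatedly during 40 h incubation.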

[10] = qHTS RealTime-Glo MT Cell Viability Assay in HepG2 cells - 40 hour (AID 1224870); details: RealTime-Glo luminescence, at 76.8 µM (top of the series); also: nearly all actives have a fitted effect of over 50% in size
Procedure, shortened: (§3)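 HepG2 cells (600/well) mixed with RealTime-Glo MT reagent, settled 5 h at 37 C/5% CO2 before compound addition. Nonlytic NanoLuc luminescence from viable-cell prosubstrate reduction read repeatedly during 40 h treatment at 37 C.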

[11] = qHTS RealTime-Glo MT Cell Viability Assay in HEK293 cells - 16 hour (AID 1224872); details: RealTime-Glo luminescence, at 76.8 µM (top of the series)
Procedure, shortened: as §2

[12] = qHTS RealTime-Glo MT Cell Viability Assay in HepG2 cells - 8 hour (AID 1224873); details: RealTime-Glo luminescence, at 76.8 µM (top of the series); also: nearly all actives have a fitted effect of over 55% in size
Procedure, shortened: as §3

[13] = qHTS RealTime-Glo MT Cell Viability Assay in HepG2 cells - 32 hour (AID 1224877); details: RealTime-Glo luminescence, at 76.8 µM (top of the series); also: nearly all actives have a fitted effect of over 55% in size
Procedure, shortened: as §1

[14] = qHTS RealTime-Glo MT Cell Viability Assay in HepG2 cells - 16 hour (AID 1224885); details: RealTime-Glo luminescence, at 76.8 µM (top of the series); also: nearly all actives have a fitted effect of over 50% in size
Procedure, shortened: as §1

[15] = qHTS RealTime-Glo MT Cell Viability Assay in HEK293 cells - 24 hour (AID 1224886); details: RealTime-Glo luminescence, at 76.8 µM (top of the series)
Procedure, shortened: as §2

[16] = qHTS RealTime-Glo MT Cell Viability Assay in HEK293 cells - 8 hour (AID 1224887); details: RealTime-Glo luminescence, at 76.8 µM (top of the series)
Procedure, shortened: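 Cells were seeded together with NanoLuc luciferase and a prosubstrate that viable cells reduce to a luciferase substrate. After a 5 h incubation at 37 C/5% CO2, compounds were added and luminescence was measured repeatedly during 40 h of treatment.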

[17] = qHTS RealTime-Glo MT Cell Viability Assay in HepG2 cells - 0 hour (AID 1224889); details: RealTime-Glo luminescence, at 76.8 µM (top of the series); also: nearly all actives have a fitted effect of over 50% in size
Procedure, shortened: as §1

[18] = qHTS assay to identify small molecule antagonists of the estrogen receptor alpha (ER-alpha) signaling pathway using the BG1 cell line in the presence of 0.1 nM 17-beta-estradiol - cell viability counter screen (AID 1259241); details: VM7Luc4E2 (BG1) viability, CellTiter-Fluor protease, 22 h; at 92.4 µM (top of the series); 0.1 nM estradiol agonist added; also: nearly all actives have a fitted effect of over 40% in size
Procedure, shortened: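 VM7Luc4E2 cells (endogenous ER-alpha, 4×ERE-luciferase), hormone-starved 5 days in charcoal-stripped FBS, were treated with compounds plus 0.1 nM 17beta-estradiol for 22 hr at 37C; viability read in same wells as CellTiter-Fluor live-cell protease fluorescence.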

[19] = qHTS assay to identify small molecule antagonists of the androgen receptor (AR) signaling pathway using the MDA cell line in the presence of 0.5 nM R1881 - cell viability counter screen (AID 1259242); details: MDA-kb2 viability, CellTiter-Fluor protease fluorescence, 16 h; at 92.4 µM (top of the series); also: nearly all actives have a fitted effect of over 45% in size
Procedure, shortened: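 Counter screen for cytotoxicity run in the same wells as the AR antagonist reporter screen: MDA-kb2 cells were treated 16 hr with test compounds and 0.5 nM R1881, then live-cell protease activity was measured by fluorescence.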

[20] = target: Nuclear receptor subfamily 1 group I member 3 (Homo sapiens) (UniProt Q14994); assay: qHTS assay to identify small molecule agonists of the constitutive androstane receptor (CAR) signaling pathway (AID 1224839); details: HepG2 hCAR CYP2B6-luciferase, agonist mode, 24 h; at 92.4 µM (top of the series);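 also: HepG2 cells stably carrying human CAR and a CYP2B6 luciferase reporter; nearly all actives have a fitted effect of over 15% in size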
Procedure, shortened: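 HepG2 cells stably expressing hCAR and a CYP2B6-2.2kb luciferase reporter were treated with compounds at 15 concentrations plus 0.75 uM PK11195 (final) for 24 h at 37 C; luminescence was read after ONE-Glo addition.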
% is scaled to controls: 0 for no effect and ±100 for the full control effect.

Cc1ccc2ccccc2c1C
inactive: activity, negative = inhibition [1] 38.5% and 122% | activation [2] -0.966% | viability change, negative = cytotoxic [3] -0.136% and -1.39% | activity change, negative = cytotoxicity [4] 4.54% and 4.51% | activity, negative = inhibition [5] 38% and 10.5% | activity change, negative = cytotoxicity [6] -7.9% and -2.87% | Potency [7] | activity change, negative = cytotoxicity [8] 1.35% and 0.979% | activity change, negative = cytotoxic [9] 1.74% and 12.2% | activity change, negative = cytotoxic [10] -0.086% and -0.5% | activity change, negative = cytotoxicity [11] -6.96% and 1.72% | viability change, negative = cytotoxic [12] 1.98% and 1.42% | activity change, negative = cytotoxic [13] -0.287% and 0.58% | activity change, negative = cytotoxic [14] 1.37% and 1.87% | activity change, negative = cytotoxicity [15] -1.25% and 15.3% | activity change, negative = cytotoxicity [16] -11.1% and 1.19% | activity change, negative = cytotoxicity [17] 0.998% and 3.19% | activity change, negative = cytotoxicity [18] -1.19% and 3.44% | viability change, negative = cytotoxic [19] -0.151% and 0.959%

O=[N+]([O-])c1ccccc1Cl
inactive: viability change, negative = cytotoxic [3] -1.56% | activity change, negative = cytotoxicity [4] 1.88% | activation [20] 0.239% | activity change, negative = cytotoxicity [6] -8.7% | Potency [7] | activity change, negative = cytotoxicity [8] -1% | activity change, negative = cytotoxic [9] 4.1% | activity change, negative = cytotoxic [10] -2.83% | activity change, negative = cytotoxicity [11] 2.5% | viability change, negative = cytotoxic [12] 1.32% | activity change, negative = cytotoxic [13] -2.64% | activity change, negative = cytotoxic [14] 0.0577% | activity change, negative = cytotoxicity [15] 0.758% | activity change, negative = cytotoxicity [16] 0.185% | activity change, negative = cytotoxicity [17] 14.1% | activity change, negative = cytotoxicity [18] 14.1% | viability change, negative = cytotoxic [19] -1.74%

Oc1c(Cl)cc(Cl)cc1Cl
inactive: viability change, negative = cytotoxic [3] 5.44% and 18.3% | activity change, negative = cytotoxicity [4] 6.93% and 7.38% | activation [20] 10.4% | activity change, negative = cytotoxicity [6] -2.88% and -2.58% | Potency [7] | activity change, negative = cytotoxicity [8] -2.98% and 1.35% | activity change, negative = cytotoxic [9] -2.24% and -0.325% | activity change, negative = cytotoxic [10] 24.8% and -0.695% | activity change, negative = cytotoxicity [11] 1.69% and 2.62% | viability change, negative = cytotoxic [12] -13.5% and 1.3% | activity change, negative = cytotoxic [13] 8.83% and -0.769% | activity change, negative = cytotoxic [14] -9.89% and 1.35% | activity change, negative = cytotoxicity [15] 3.23% and 0.214% | activity change, negative = cytotoxicity [16] -7.99% and 2.52% | activity change, negative = cytotoxicity [17] -24.3% and -2.48% | activity change, negative = cytotoxicity [18] 3.9% and 4.94% | viability change, negative = cytotoxic [19] 1.25% and 1.56%
